Results as given in the supplement of paper PMC8612539.
Further values from the same series stand in other lists.

Test system: Escherichia coli
Experiment: minimum inhibitory concentration (MIC)
Procedure: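 Broth microdilution MIC (Sensititre BOPO7F bovine plate, CLSI methods) of 19 antimicrobials against field isolates of P. multocida, M. haemolytica, H. somni (deep nasopharyngeal swabs) and E. coli, Enterococcus spp. (rectal swabs) from weaned dairy heifers. Incubation 16-24 h at 35 C. MIC is the lowest concentration preventing visible growth. Values with <= or > lie at the tested range limits. Trimethoprim-sulfamethoxazole is given as the trimethoprim component of a 1:19 mixture.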

Measured: minimum inhibitory concentration

CCC[C@@H]1C[C@@H](C(=O)N[C@@H]([C@H]2O[C@H](SC)[C@H](O)[C@@H](O)[C@H]2O)[C@H](C)Cl)N(C)C1 [Clindamycin]
> 16 µg/mL: isolate (source animal id): 281 | isolate (source animal id): 282 | isolate (source animal id): 283 | isolate (source animal id): 284 | isolate (source animal id): 285 | isolate (source animal id): 286 | isolate (source animal id): 287 | isolate (source animal id): 288 | isolate (source animal id): 289 | isolate (source animal id): 290 | isolate (source animal id): 291 | isolate (source animal id): 292 | isolate (source animal id): 293 | isolate (source animal id): 294 | isolate (source animal id): 295 | isolate (source animal id): 296 | isolate (source animal id): 297 | isolate (source animal id): 298 | isolate (source animal id): 299 | isolate (source animal id): 300 | isolate (source animal id): 301 | isolate (source animal id): 302 | isolate (source animal id): 303 | isolate (source animal id): 304 | isolate (source animal id): 305 | isolate (source animal id): 306 | isolate (source animal id): 307 | isolate (source animal id): 308 | isolate (source animal id): 309 | isolate (source animal id): 310 | isolate (source animal id): 311 | isolate (source animal id): 312 | isolate (source animal id): 313 | isolate (source animal id): 314 | isolate (source animal id): 315 | isolate (source animal id): 316 | isolate (source animal id): 317 | isolate (source animal id): 318 | isolate (source animal id): 319 | isolate (source animal id): 320 | isolate (source animal id): 321 | isolate (source animal id): 322 | isolate (source animal id): 323 | isolate (source animal id): 324 | isolate (source animal id): 325 | isolate (source animal id): 326 | isolate (source animal id): 327 | isolate (source animal id): 328 | isolate (source animal id): 329 | isolate (source animal id): 330 | isolate (source animal id): 331 | isolate (source animal id): 332 | isolate (source animal id): 333 | isolate (source animal id): 334 | isolate (source animal id): 335 | isolate (source animal id): 336 | isolate (source animal id): 337 | isolate (source animal id): 338 | isolate (source animal id): 339 | isolate (source animal id): 340 | isolate (source animal id): 341
